These are yes or no findings as the source states them, for the method shown. Binding can be weak; no strength is given.

The chains behind the UniProt entries cited, without tags or fusion partners. Where a name states a change or a piece, a line headed by the entry shows the natural chain unless it says otherwise.
UniProt Q8Y610: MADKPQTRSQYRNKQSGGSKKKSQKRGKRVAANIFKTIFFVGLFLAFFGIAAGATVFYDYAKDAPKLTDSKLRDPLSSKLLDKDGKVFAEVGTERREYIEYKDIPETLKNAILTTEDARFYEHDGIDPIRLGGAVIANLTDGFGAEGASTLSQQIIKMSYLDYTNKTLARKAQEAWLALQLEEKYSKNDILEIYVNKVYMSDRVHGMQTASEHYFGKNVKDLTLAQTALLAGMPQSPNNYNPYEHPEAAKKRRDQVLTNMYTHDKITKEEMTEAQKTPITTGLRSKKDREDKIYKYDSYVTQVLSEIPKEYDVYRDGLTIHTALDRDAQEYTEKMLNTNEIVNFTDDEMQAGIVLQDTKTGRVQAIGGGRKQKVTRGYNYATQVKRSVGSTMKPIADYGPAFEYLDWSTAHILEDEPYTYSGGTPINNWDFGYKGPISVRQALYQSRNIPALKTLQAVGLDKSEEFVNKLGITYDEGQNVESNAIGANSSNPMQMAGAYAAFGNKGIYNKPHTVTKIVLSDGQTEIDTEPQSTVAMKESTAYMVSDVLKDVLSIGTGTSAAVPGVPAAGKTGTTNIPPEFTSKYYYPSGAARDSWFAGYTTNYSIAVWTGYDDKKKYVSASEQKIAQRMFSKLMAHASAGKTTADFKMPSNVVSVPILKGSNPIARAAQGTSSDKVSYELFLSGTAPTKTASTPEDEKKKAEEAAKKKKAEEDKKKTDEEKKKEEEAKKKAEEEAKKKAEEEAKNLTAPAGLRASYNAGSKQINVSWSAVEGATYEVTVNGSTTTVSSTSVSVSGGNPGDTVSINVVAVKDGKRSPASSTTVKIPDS
UniProt Q8Y614: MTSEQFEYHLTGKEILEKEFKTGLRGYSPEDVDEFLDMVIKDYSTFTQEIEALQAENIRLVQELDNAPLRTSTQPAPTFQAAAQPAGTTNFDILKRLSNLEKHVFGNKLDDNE

The target in the assay is T25-PBPA1ΔGT-TP (L. monocytogenes) (UniProt Q8Y610). Description: two-hybrid; BACTH (L. monocytogenes proteins) in E. coli BTH101; LB agar with X-Gal and IPTG, photographs after 24 and 48 h at 30 °C.

As for “LmGpsB (BACTH fusion) (from UniProt Q8Y614 1-113)”, the binding result is recorded as “binds”.

Values taken from paper PMC6335420, “The cell cycle regulator GpsB functions as cytosolic adaptor for multiple cell wall enzymes” (Nature Communications, 2019).
